Test results from the supplement of paper PMC10849652.
This is one part of the list.

Amino acid sequences for entries named in this document (tags omitted). A change or cut given only in a name is not applied to a line headed by its entry.
UniProt Q10567: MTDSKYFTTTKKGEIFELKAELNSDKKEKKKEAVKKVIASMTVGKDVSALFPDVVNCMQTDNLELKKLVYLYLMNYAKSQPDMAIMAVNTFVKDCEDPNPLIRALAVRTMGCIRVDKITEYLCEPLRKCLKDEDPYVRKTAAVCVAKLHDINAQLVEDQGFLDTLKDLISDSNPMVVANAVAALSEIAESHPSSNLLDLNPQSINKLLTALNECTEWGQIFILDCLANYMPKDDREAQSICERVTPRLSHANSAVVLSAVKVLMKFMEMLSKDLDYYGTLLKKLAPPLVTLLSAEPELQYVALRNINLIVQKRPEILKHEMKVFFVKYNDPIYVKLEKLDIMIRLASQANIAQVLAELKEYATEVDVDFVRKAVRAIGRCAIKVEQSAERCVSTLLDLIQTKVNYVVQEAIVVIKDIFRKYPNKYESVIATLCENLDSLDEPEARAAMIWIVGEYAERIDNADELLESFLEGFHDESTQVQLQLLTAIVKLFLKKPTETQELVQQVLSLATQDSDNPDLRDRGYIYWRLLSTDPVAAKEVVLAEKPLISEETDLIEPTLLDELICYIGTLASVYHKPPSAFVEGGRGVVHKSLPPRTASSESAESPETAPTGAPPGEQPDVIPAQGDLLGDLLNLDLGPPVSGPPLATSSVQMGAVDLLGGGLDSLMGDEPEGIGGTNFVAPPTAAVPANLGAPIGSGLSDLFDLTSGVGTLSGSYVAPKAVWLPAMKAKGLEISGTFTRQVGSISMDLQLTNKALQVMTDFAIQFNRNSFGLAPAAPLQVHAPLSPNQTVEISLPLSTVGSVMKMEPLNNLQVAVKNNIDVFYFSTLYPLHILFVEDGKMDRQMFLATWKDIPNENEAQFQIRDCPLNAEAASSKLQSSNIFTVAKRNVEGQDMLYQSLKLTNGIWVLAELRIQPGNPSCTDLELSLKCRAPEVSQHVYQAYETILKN
UniProt P27695, whole entry, looked up: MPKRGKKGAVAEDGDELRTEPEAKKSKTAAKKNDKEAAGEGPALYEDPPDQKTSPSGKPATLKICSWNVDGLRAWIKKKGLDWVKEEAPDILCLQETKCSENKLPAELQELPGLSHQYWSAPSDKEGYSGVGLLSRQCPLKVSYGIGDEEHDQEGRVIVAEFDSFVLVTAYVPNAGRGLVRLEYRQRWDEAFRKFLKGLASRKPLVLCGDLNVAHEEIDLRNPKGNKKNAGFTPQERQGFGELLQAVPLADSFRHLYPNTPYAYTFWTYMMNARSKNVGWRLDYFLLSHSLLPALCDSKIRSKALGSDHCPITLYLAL
UniProt Q6NXT1: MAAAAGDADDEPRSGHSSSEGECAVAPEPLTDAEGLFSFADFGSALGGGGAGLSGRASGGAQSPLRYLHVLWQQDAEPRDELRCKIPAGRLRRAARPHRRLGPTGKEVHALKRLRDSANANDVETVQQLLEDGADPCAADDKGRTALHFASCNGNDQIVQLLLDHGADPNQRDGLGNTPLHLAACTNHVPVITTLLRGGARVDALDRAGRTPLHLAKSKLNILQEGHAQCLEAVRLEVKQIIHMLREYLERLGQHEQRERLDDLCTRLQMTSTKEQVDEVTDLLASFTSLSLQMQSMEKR
UniProt P52565: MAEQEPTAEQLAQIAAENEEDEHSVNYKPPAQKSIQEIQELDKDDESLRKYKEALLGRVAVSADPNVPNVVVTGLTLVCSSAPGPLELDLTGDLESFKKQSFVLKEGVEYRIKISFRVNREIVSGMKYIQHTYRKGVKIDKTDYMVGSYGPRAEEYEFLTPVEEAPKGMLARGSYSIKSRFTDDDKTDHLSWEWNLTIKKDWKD
UniProt Q9UJX4, whole entry, looked up: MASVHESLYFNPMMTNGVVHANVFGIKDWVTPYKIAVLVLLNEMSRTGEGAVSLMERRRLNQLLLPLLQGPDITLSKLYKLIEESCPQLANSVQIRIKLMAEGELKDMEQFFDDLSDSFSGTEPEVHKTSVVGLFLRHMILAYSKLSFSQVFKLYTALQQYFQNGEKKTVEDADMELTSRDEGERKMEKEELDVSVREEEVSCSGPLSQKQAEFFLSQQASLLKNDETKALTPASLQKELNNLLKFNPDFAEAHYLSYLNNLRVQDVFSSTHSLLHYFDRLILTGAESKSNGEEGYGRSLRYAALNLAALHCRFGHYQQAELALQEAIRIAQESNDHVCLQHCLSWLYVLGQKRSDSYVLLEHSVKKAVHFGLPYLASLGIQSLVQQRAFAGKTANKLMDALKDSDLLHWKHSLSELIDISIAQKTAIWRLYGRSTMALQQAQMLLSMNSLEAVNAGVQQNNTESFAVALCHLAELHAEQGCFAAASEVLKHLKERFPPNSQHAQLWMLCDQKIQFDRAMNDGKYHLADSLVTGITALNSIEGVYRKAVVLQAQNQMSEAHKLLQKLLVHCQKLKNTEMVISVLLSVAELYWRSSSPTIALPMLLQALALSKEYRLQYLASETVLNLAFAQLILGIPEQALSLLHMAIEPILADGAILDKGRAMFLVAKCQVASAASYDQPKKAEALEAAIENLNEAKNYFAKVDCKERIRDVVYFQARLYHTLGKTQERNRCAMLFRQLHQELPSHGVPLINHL
UniProt Q7Z2E3: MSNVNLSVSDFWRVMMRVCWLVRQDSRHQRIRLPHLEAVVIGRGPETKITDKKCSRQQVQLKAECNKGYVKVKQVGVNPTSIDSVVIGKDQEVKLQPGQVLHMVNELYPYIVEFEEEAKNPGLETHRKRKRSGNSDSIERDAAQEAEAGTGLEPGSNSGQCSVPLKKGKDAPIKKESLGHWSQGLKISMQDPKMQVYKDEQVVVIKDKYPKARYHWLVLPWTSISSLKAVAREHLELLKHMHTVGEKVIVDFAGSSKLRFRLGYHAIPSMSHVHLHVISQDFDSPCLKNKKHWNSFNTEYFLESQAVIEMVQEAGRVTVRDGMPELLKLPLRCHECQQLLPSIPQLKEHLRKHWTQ
UniProt Q8IW19: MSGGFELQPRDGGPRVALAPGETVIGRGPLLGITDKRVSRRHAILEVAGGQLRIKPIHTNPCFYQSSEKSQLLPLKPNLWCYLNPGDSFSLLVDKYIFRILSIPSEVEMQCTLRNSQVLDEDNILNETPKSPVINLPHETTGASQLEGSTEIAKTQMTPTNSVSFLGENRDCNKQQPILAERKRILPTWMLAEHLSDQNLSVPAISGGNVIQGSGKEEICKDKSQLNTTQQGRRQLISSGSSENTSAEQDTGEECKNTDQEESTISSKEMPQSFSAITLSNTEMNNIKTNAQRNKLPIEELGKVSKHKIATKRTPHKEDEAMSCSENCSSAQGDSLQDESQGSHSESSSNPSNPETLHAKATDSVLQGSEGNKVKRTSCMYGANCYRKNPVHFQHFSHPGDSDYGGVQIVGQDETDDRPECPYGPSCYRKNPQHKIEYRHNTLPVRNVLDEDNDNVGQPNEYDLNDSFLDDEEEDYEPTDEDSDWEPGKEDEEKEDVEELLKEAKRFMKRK
UniProt Q6P6B7: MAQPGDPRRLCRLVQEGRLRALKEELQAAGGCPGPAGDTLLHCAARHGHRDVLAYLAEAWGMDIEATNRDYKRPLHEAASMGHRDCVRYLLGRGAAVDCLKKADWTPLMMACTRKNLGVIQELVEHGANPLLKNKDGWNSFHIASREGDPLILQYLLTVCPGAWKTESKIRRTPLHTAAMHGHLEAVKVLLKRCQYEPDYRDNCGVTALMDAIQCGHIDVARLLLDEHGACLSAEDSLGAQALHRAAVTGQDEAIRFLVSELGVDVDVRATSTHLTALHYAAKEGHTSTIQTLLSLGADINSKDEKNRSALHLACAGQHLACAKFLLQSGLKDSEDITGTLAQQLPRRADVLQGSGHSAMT
UniProt P05067, whole entry, looked up: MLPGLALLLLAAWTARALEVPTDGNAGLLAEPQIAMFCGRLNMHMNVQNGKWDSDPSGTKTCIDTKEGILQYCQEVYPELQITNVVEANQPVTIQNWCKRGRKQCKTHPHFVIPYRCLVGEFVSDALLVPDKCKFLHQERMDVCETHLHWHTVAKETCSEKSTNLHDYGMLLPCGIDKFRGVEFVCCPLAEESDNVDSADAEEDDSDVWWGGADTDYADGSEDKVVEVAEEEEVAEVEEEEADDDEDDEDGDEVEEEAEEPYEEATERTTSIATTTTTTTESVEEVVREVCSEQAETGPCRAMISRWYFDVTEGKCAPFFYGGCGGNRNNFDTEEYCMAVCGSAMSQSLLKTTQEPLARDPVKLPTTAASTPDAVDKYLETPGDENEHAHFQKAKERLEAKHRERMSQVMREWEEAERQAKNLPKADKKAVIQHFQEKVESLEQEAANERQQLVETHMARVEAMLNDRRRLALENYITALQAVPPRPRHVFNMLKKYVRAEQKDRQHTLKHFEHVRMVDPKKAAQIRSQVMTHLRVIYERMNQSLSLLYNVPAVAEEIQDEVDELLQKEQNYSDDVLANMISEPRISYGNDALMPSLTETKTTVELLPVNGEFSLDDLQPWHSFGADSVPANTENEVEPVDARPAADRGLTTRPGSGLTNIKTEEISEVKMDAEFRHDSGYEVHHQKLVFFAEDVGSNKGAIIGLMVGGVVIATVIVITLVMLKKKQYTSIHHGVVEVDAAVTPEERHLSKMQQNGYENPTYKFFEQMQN
UniProt Q86XL3: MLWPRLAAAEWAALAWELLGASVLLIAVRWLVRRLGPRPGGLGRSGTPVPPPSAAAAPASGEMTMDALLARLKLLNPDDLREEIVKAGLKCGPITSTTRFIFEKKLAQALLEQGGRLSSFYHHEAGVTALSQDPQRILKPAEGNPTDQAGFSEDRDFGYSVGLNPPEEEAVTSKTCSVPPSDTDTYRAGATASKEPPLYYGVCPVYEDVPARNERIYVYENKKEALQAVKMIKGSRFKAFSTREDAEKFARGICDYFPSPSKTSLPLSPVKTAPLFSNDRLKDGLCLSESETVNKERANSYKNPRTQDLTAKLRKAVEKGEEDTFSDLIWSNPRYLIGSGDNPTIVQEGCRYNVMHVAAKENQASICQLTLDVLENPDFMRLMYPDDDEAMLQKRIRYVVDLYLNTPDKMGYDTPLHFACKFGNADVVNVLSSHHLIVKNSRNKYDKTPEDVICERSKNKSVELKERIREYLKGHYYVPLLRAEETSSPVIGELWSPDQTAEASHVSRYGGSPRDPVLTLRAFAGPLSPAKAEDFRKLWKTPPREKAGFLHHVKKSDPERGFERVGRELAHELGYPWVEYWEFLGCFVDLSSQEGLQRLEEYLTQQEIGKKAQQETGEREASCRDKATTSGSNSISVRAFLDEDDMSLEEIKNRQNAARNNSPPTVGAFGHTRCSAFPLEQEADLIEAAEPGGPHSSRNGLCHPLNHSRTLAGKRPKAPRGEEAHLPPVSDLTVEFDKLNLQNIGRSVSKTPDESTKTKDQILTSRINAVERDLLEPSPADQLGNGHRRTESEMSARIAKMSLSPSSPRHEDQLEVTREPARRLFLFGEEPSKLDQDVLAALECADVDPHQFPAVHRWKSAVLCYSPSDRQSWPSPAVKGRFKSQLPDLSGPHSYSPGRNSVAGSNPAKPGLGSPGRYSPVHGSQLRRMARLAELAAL
UniProt P02655: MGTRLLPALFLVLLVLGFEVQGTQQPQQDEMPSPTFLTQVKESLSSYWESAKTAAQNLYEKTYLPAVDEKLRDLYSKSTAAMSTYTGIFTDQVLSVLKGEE
UniProt Q9UH17: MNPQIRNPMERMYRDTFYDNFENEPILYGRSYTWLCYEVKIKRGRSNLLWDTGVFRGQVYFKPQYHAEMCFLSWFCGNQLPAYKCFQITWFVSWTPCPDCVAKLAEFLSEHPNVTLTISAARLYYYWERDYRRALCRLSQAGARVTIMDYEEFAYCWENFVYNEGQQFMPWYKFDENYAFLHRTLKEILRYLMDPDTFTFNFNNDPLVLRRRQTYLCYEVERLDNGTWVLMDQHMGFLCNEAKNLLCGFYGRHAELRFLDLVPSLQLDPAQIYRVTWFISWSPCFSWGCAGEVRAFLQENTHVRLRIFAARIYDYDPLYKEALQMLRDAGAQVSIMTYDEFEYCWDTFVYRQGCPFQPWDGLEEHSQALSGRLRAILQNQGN
UniProt P06727: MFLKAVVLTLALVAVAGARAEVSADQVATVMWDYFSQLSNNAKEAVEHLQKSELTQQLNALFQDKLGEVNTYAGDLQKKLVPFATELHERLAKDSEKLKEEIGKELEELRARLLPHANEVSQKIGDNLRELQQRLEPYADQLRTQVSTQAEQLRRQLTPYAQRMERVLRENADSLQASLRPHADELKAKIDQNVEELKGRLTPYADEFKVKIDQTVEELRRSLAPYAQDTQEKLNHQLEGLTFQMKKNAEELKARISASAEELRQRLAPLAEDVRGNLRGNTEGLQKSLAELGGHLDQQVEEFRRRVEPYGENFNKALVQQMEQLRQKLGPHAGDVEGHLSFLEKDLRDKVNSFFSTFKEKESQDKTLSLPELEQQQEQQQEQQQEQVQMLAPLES
UniProt P05090: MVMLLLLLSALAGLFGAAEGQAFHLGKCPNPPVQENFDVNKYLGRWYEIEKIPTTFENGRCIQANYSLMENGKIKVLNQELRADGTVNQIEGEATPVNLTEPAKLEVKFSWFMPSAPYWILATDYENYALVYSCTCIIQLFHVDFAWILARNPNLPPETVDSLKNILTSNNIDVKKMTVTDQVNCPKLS

Tests used:
Assay in all cases: log2 fold change, soluble protein after heating vs DMSO (PISA); higher = thermal stabilisation; K562 cells, 10 uM, 30 min; active = over 0.2 and 3.5 SD of the protein, either way, in both replicates (recomputed)
[1] = compound: C1=CC=C(C=C1)[C@H](COC2=CC3=C(C=C2)NC(=O)N3)NC(=O)C4=CC=CN(C4=O)CC5=CC(=C(C=C5)F)F
Outline: (§1)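 K562 cells at 2×10^6 cells/mL were treated with 10 μM compound for 30 min. Aliquots were heated for 3 min across 48°C-58°C, pooled, and extracted in PBS with 0.5% NP-40 at 4°C; soluble protein was the supernatant after 21,000xg for 90 min. Soluble protein was quantified by TMTpro 16plex LC-MS/MS with channel sums equalised, and reported as log2 fold change in thermal stability against DMSO controls, with values from duplicates.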

[2] = compound: CC1=C(SC2=C1C(=N[C@H](C3=NN=C(N32)C)CC(=O)N)C4=CC=C(C=C4)Cl)C
Outline: as §1

[3] = compound: CC1=C2C(=CC=C1)N=C(N(C2=O)C3=CC=CC=C3C)CN4C=NC5=C(N=CN=C54)N
Outline: as §1

[4] = compound: Cc1sc2c(c1C)C(c1ccc(Cl)cc1)=N[C@@H](CC(=O)OC(C)(C)C)c1nnc(C)n1-2
Outline: as §1

[5] = compound: c1ccc([C@@H]2C[C@H]2NC2CCNCC2)cc1
Outline: as §1

Measured: log2 fold change

APC (UniProt P25054)
inactive: [1] 0.07 | [2] -0.119 | [3] 0.108 | [4] 0.016 | [5] 0.056

AP1B1 (UniProt Q10567)
inactive: [1] -0.004 | [2] 0.044 | [3] 0.019 | [4] 0.019 | [5] 0.001

ANAPC16 (UniProt Q96DE5)
inactive: [1] -0.032 | [2] 0.066 | [3] 0.05 | [4] -0.137 | [5] -0.026

ARF6 (UniProt P62330)
inactive: [1] -0.044 | [2] 0.066 | [3] 0.008 | [4] -0.106 | [5] 0.016

APEX1 (UniProt P27695)
inactive: [1] -0.095 | [2] 0.004 | [3] 0.031 | [4] 0.023 | [5] -0.009

3 neighbouring entries already listed, quoted:
ANAPC16 (UniProt Q96DE5)
inactive: [1] -0.032 | [2] 0.066 | [3] 0.05 | [4] -0.137 | [5] -0.026

ARF6 (UniProt P62330)
inactive: [1] -0.044 | [2] 0.066 | [3] 0.008 | [4] -0.106 | [5] 0.016

APEX1 (UniProt P27695)
inactive: [1] -0.095 | [2] 0.004 | [3] 0.031 | [4] 0.023 | [5] -0.009

(list continues)

ARHGDIB (UniProt P52566)
inactive: [1] -0.005 | [2] 0.004 | [3] 0.072 | [4] 0.029 | [5] -0.094

APOE (UniProt P02649)
inactive: [1] -0.038 | [2] 0.002 | [3] 0.069 | [4] 0.046 | [5] -0.028

ANKRD54 (UniProt Q6NXT1)
inactive: [1] 0.064 | [2] -0.087 | [3] -0.031 | [4] 0.029 | [5] 0.157

APOL2 (UniProt J3KQL8)
inactive: [1] -0.212 | [2] 0.032 | [3] 0.001 | [4] 0.012 | [5] -0.122

ANO6 isoform 2 (UniProt Q4KMQ2)
inactive: [1] -0.015 | [2] 0.015 | [3] 0.023 | [4] -0.031 | [5] 0.014

APOBR (UniProt Q0VD83)
inactive: [1] 0.036 | [2] 0.014 | [3] 0.028 | [4] 0.028 | [5] 0.055

ANXA11 (UniProt P50995)
inactive: [1] 0.116 | [2] 0.073 | [3] 0.099 | [4] -0.036 | [5] -0.024

ANGPTL3 (UniProt Q9Y5C1)
inactive: [1] -0.058 | [2] -0.09 | [3] 0.108 | [4] 0.032 | [5] -0.135

APOA1 (UniProt P02647)
inactive: [1] -0.123 | [2] -0.102 | [3] 0.092 | [4] 0.083 | [5] -0.169

AP4B1 (UniProt Q9Y6B7)
inactive: [1] 0.018 | [2] -0.073 | [3] 0 | [4] 0.016 | [5] -0.086

ARHGDIA (UniProt P52565)
inactive: [1] -0.044 | [2] 0.034 | [3] 0.008 | [4] -0.075 | [5] -0.065

ANAPC5 (UniProt Q9UJX4)
inactive: [1] -0.028 | [2] 0.015 | [3] 0.049 | [4] 0.064 | [5] 0.003

ARFIP1 (UniProt P53367)
inactive: [1] 0.04 | [2] 0.042 | [3] 0.051 | [4] -0.065 | [5] -0.03

APOBEC3C (UniProt Q9NRW3)
inactive: [1] 0.034 | [2] -0.062 | [3] -0.121 | [4] 0.108 | [5] 0.111

APPBP2 (UniProt Q92624)
inactive: [1] -0.035 | [2] -0.029 | [4] -0.027 | [5] -0.151

ANKRD46 (UniProt Q86W74)
inactive: [1] -0.027 | [2] -0.016 | [3] -0.023 | [4] -0.096 | [5] -0.004

ANKFY1 isoform 4 (UniProt Q9P2R3)
inactive: [1] 0.093 | [2] 0.103 | [3] 0.101 | [4] 0.118 | [5] -0.122

AP4S1 (UniProt Q9Y587)
inactive: [1] -0.077 | [2] 0.133 | [3] 0.069 | [5] 0

APTX (UniProt Q7Z2E3)
inactive: [2] -0.06 | [5] 0.03

ANGEL1 (UniProt Q9UNK9)
inactive: [1] -0.256 | [3] -0.172 | [4] -0.042

AP1B1 isoform 3 (UniProt Q10567)
inactive: [2] -0.031 | [3] -0.235 | [4] -0.062 | [5] 0.165

APLF (UniProt Q8IW19)
inactive: [2] 0.035 | [5] 0.063

AP3M2 (UniProt P53677)
inactive: [1] -0.078 | [2] -0.144 | [5] -0.102

ANKRD16 (UniProt Q6P6B7)
inactive: [1] 0.214 | [3] 0.264

ARHGAP5 (UniProt Q13017)
inactive: [1] -0.095 | [2] 0.22 | [4] 0 | [5] 0.02

ANPEP (UniProt P15144)
inactive: [2] 0.173 | [4] 0.12 | [5] -0.03

APP (UniProt P05067)
inactive: [4] 0.15

ANKRD36 (UniProt A6QL64)
inactive: [3] 0.054 | [4] 0.04

ARHGAP22 isoform 2 (UniProt Q7Z5H3)
inactive: [3] 0.044 | [4] 0.048

ANKRD52 (UniProt Q8NB46)
inactive: [2] -0.204 | [3] -0.122 | [4] -0.156 | [5] 0.05

ARAP1 (UniProt Q96P48)
inactive: [1] -0.084 | [2] -0.054 | [4] 0.151 | [5] 0.058

ANKLE2 (UniProt Q86XL3)
inactive: [3] 0.02

ARHGAP6 (UniProt O43182)
inactive: [4] -0.056

APOC2 (UniProt P02655)
inactive: [2] 0.08 | [3] 0.235 | [5] -0.254

API5 isoform 1 (UniProt Q9BZZ5)
inactive: [2] -0.113 | [3] 0.453 | [4] -0.237 | [5] 0.061

ANKRD26 (UniProt Q9UPS8)
inactive: [2] -0.077 | [3] 0.039 | [4] -0.146 | [5] 0.034

ARHGEF10 (UniProt O15013)
inactive: [1] -0.169 | [3] 0.308

AP2S1 (UniProt M0QZ21)
inactive: [4] -0.014

AP1S2 (UniProt P56377)
inactive: [1] -0.065 | [2] -0.112 | [5] 0.112

APAF1 (UniProt O14727)
inactive: [2] 0.031 | [3] 0.112 | [5] 0.055

APOBEC3F (UniProt Q8IUX4)
inactive: [1] -0.197 | [2] 0.003 | [5] -0.086

ARHGAP35 (UniProt Q9NRY4)
inactive: [2] -0.022 | [3] 0.205 | [4] 0.085 | [5] 0.022

ANLN (UniProt Q9NQW6)
inactive: [1] 0.002 | [3] 0.325

ANKS1A (UniProt Q92625)
inactive: [1] -0.046 | [2] -0.108 | [4] 0.395 | [5] 0.185

ARHGEF12 (UniProt Q9NZN5)
inactive: [1] -0.318 | [3] -0.128 | [4] 0.015

ANKRD11 (UniProt Q6UB99)
inactive: [1] -0.144 | [3] 0.194

AQR (UniProt O60306)
inactive: [2] -0.051 | [3] 0.048 | [4] 0.058 | [5] 0.021

APOBEC3G (UniProt Q9HC16)
inactive: [1] 0.089 | [3] 0.436 | [4] 0.147

APOC3 (UniProt P02656)
inactive: [1] -0.171 | [2] 0.009 | [4] 0.059 | [5] -0.221

APOBEC3B (UniProt Q9UH17)
inactive: [2] -0.046 | [5] 0.146

ARHGAP21 (UniProt Q5T5U3)
inactive: [1] 0.142 | [2] 0.18 | [5] -0.201

ANAPC15 isoform 2 (UniProt P60006)
inactive: [2] -0.063 | [3] 0.04 | [4] -0.067 | [5] -0.037

APOA4 (UniProt P06727)
inactive: [1] 0.026 | [3] 0.156 | [4] 0.178

ARID4B (UniProt Q4LE39)
inactive: [4] -0.116

ANKRD13C (UniProt Q8N6S4)
inactive: [2] 0.134 | [3] 0.101 | [4] -0.008 | [5] -0.023

APOD (UniProt P05090)
inactive: [2] 0.39 | [3] -0.139 | [4] -0.121 | [5] -0.034

AP1G2 (UniProt O75843)
inactive: [2] 0.015 | [5] -0.299
